Experimental data reported in publication PMC7819943, “Rice protein-binding microarrays: a tool to detect cis-acting elements near promoter regions in rice”.
This is one part of the list.

Protein sequences, listed by entry. Tags and fused reporters are not part of them.
UniProt Q0JBA9, entry or part of it: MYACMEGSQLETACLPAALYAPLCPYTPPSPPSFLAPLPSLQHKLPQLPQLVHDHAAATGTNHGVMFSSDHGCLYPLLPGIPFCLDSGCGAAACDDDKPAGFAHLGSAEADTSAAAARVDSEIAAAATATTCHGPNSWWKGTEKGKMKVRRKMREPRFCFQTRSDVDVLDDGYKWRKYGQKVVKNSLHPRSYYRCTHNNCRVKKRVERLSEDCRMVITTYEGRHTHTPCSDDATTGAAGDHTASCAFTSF

These sequences were tested against OsWRKY34 (Oryza sativa, UniProt Q0JBA9 1-250) (assay: protein-binding microarray (RPBM); PBS, 2% BSA, 51.3 ng/ul salmon testes DNA, 50 uM zinc acetate, 200 nM TF, 25 C, 1 h; high values mean tight binding). Details: protein: recombinant; tags: N-terminal polyhistidine and DsRed monomer fusion (pET32a); label: CyDye5-dUTP incorporated in the synthesized complementary strand; 3' TTTTT single-stranded linker to array surface; dsDNA, one strand shown.
How it was run: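 Polyhistidine-tagged DsRed fusions of transcription factors, joined at the N-terminus, were expressed in E. coli BL21-CodonPlus and isolated on Ni–NTA. They were incubated at 200 nM for 1 h at 25 °C on a custom Agilent array, double-stranded and BSA-blocked, in PBS with 2% BSA, salmon testes DNA and 50 µM zinc acetate. The binding signal is per-feature fluorescence intensity (arbitrary units) read on an Axon 4000B scanner after washing.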

Row | Sequence | binding signal
1 | CCTTGCTGATTTGGCACTTTGACAATTGACACGATCTATCCGGAGTCACCTAGTGCAG | 8390 fluorescence intensity (a.u.)
2 | CCCACTCCTCCTGTCTTGTTGCTCACTCACTCTGCTGGCACGGAGTCACCTAGTGCAG | 8890 fluorescence intensity (a.u.)
3 | CTTATATTTAACACCCAAATTCCCAAATCTCGTCCTTTTCCGGAGTCACCTAGTGCAG | 8410 fluorescence intensity (a.u.)
4 | TTAGGCTACTTATCTACTTGTACCCATCTGGCTTACACTACGGAGTCACCTAGTGCAG | 8130 fluorescence intensity (a.u.)
5 | AGAACAGATGAGTTAATACACAAGGTTAGCAGTATATTTTCGGAGTCACCTAGTGCAG | 8790 fluorescence intensity (a.u.)
6 | TTGTATACTTGTAGTACTATCTATACTATTCTACTGCAACCGGAGTCACCTAGTGCAG | 9230 fluorescence intensity (a.u.)
7 | TCGCTGCGGCTTTCAATTTCGCGGCTCGTGTTCTTCTCTTCGGAGTCACCTAGTGCAG | 9490 fluorescence intensity (a.u.)
8 | ACTATTTAAACCCCACTCGAGCTCACTACTTTCCTCACCACGGAGTCACCTAGTGCAG | 8950 fluorescence intensity (a.u.)
9 | TCCATGGGATTTGCCAGTTCTCAAGCACGGCTGTTTTTTTCGGAGTCACCTAGTGCAG | 8660 fluorescence intensity (a.u.)
10 | GTTCGTCTTATTTGAAAATTTTTTATGATTATTATTTTTACGGAGTCACCTAGTGCAG | 10200 fluorescence intensity (a.u.)
11 | GTTTTGTCCCGCGTTGCATCTTTGACCCCATTGACTAGCTCGGAGTCACCTAGTGCAG | 13100 fluorescence intensity (a.u.)
12 | CATACTCACTCCTCGGCTTCTCGTCGTGCTCTGCTCTGTGCGGAGTCACCTAGTGCAG | 8250 fluorescence intensity (a.u.)
13 | CACCCTTTTTGGATCACCACATTCCAGCTCTCCTGCTTTTCGGAGTCACCTAGTGCAG | 8620 fluorescence intensity (a.u.)
14 | GGTACCTGATTCAATTTATTTGTATGTATATTTTTAATTACGGAGTCACCTAGTGCAG | 8820 fluorescence intensity (a.u.)
15 | CAACGTTTAACCATCTGTCTTGTTTGAAAATTTTATGAAACGGAGTCACCTAGTGCAG | 8060 fluorescence intensity (a.u.)
16 | GTCGCTATTCTTCTAGTCAAATGATTCAAAAAACGGATCACGGAGTCACCTAGTGCAG | 8840 fluorescence intensity (a.u.)
17 | CGCGCCACCTTCCCGCGCGGGTCGTATCCTGGGCATCCGTCGGAGTCACCTAGTGCAG | 9380 fluorescence intensity (a.u.)
18 | ATTTTCTTTCTGCAAATGCTAATTACTTATATTAACATCCCGGAGTCACCTAGTGCAG | 9270 fluorescence intensity (a.u.)
19 | AGAGGGGTCGTGGTAATTTGGAGTCGGAATAATACACTTTCGGAGTCACCTAGTGCAG | 9270 fluorescence intensity (a.u.)
20 | ACTTCATGTACTCTTAACATTATCTGCTTGTACCCTTATCCGGAGTCACCTAGTGCAG | 11100 fluorescence intensity (a.u.)
21 | AATGGTATTTAGCCCTCGTGTATCACTTGGTACAAACTCTCGGAGTCACCTAGTGCAG | 10000 fluorescence intensity (a.u.)

Given in CSV form: entries from further up.
Row,Sequence,binding signal
17,CGCGCCACCTTCCCGCGCGGGTCGTATCCTGGGCATCCGTCGGAGTCACCTAGTGCAG,9380 fluorescence intensity (a.u.)
18,ATTTTCTTTCTGCAAATGCTAATTACTTATATTAACATCCCGGAGTCACCTAGTGCAG,9270 fluorescence intensity (a.u.)

Further entries

Row | Sequence | binding signal
22 | AATTATTGTCACGTTGCTAGGCTCACCTGAATTCACATCGCGGAGTCACCTAGTGCAG | 9910 fluorescence intensity (a.u.)
23 | CAGCTGGCGGTTTTGGGTTTTGTGTTTAGGGTTTAGGAACCGGAGTCACCTAGTGCAG | 9430 fluorescence intensity (a.u.)
24 | CGCACAACATGCCCGCTCTGCCGTTCTGACGTCGCCGTCGCGGAGTCACCTAGTGCAG | 9660 fluorescence intensity (a.u.)
25 | ACCATCACACACGCTAGCTCTCTTTCTCGCTTTCACCCGCCGGAGTCACCTAGTGCAG | 11200 fluorescence intensity (a.u.)
26 | GGTCAAACATTTTAAAAAAAAGTCAACGGCGTCAAATATTCGGAGTCACCTAGTGCAG | 8800 fluorescence intensity (a.u.)
27 | TGGGGTTGGTATTCTGGAGTTAAGTGGTTCACCGCCATGTCGGAGTCACCTAGTGCAG | 10300 fluorescence intensity (a.u.)
28 | ATCGTTTGTTATTCAGTTTATCCAGCCAAAATTTAAATTTCGGAGTCACCTAGTGCAG | 9280 fluorescence intensity (a.u.)
29 | AAAATATATATGTACCTATGCGCACACACCACTGCAAACACGGAGTCACCTAGTGCAG | 11800 fluorescence intensity (a.u.)
30 | GGCGTTATTTAGAATAATAGTTGAGGTGTGTAAAGTTTTCCGGAGTCACCTAGTGCAG | 9510 fluorescence intensity (a.u.)
31 | TGCTCTCGTCTCTTCTTGCTTACAGAAGAATCCTCGCTTCCGGAGTCACCTAGTGCAG | 9770 fluorescence intensity (a.u.)
32 | GAACACATATGTCGAAAATTTTTTGGGACTCTTGCCTTTTCGGAGTCACCTAGTGCAG | 9460 fluorescence intensity (a.u.)
33 | CAACTGGTTAATGGAGGTTAACTAGCAAAAACCGTTGACTCGGAGTCACCTAGTGCAG | 9940 fluorescence intensity (a.u.)
34 | TCTTCTAGGCATGCAACATAATAAAAGTCTTTACTCATACCGGAGTCACCTAGTGCAG | 8880 fluorescence intensity (a.u.)
35 | GCTTACTTCCTTTATTATGTTTGCTACTAGCTGAATCAACCGGAGTCACCTAGTGCAG | 9940 fluorescence intensity (a.u.)
36 | CTTAAGCTTATTCATGTTTTCATCAGTCTGAAACCAAACACGGAGTCACCTAGTGCAG | 8450 fluorescence intensity (a.u.)
37 | TCCTCCCATCTCTCTCTCTTTTGCCCACACTCTTTTCACACGGAGTCACCTAGTGCAG | 9330 fluorescence intensity (a.u.)
38 | GCCTGTTCACTTTGATGCTATTTTCAACCATACCATTTTTCGGAGTCACCTAGTGCAG | 12200 fluorescence intensity (a.u.)
39 | CATGTGCTAAAAAGTCAACGGCGTCAAACATTTCAAAACGCGGAGTCACCTAGTGCAG | 10300 fluorescence intensity (a.u.)
40 | GAGAACATGGATGGATAGTGGATTTCTTATTGATTGTTGACGGAGTCACCTAGTGCAG | 8130 fluorescence intensity (a.u.)
41 | CGTGAGCGGGTGGTGGTGGTGATGGCGTTCGCGGTGGCGACGGAGTCACCTAGTGCAG | 9660 fluorescence intensity (a.u.)
42 | AACTCATCAGCAACTATCTATCTTTATTTCTGCATCTACTCGGAGTCACCTAGTGCAG | 10200 fluorescence intensity (a.u.)
